Assay results published in the supplement of paper PMC11451515.

Experiments:
[1] = test system: NOMO1; assay: cell viability relative to DMSO control; higher = less cytotoxic; details: RPMI 5 mM glucose + 10% FBS, 48 h
How it was run: (§1)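 Viability, reported as a per-plate percentage of DMSO wells with cell-free wells as background, came from CellTiter-Glo One luminescence. Reading took place after 48 h at 37°C. Before that, NOMO1 or SEM (500 cells/well) or P12-Ichikawa (1000 cells/well) leukemia cells, adapted for at least four passages in each medium, were seeded in 1536-well plates (5 μl) and pin-dosed with library compounds in DMSO, 47 μM to 0.79 nM over 11 threefold points.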

[2] = test system: SEM cells; assay: as above; details: 48 h
How it was run: as §1

[3] = test system: NOMO1; assay: AUC of viability dose-response curve (% viability x log10 dose units); higher = less sensitive; details: 48 h
How it was run: (§2)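 Leukemia cells adapted to each medium were seeded in 1536-well plates (500 or 1000 cells/well) and given library compounds in DMSO for 48 h at 37°C. The 11 threefold doses spanned 47 μM to 0.79 nM, and CellTiter-Glo One luminescence was normalised per plate to DMSO and cell-free wells before four-parameter log-logistic fitting on log10 dose. Area under the curve was integrated with the trapezoidal rule, scaling curves above full viability and removing curves that failed quality control.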

[4] = test system: P12-Ichikawa; assay: as above; details: 48 h
How it was run: as §2

[5] = test system: SEM cells; assay: as above; details: 48 h
How it was run: as §2

CC1=C(C=CC=C1)N2C(=O)C3=C(C=CC=C3C)\N=C2\C[N]4N=C(C5=CC(=CC=C5)O)C6=C(N)N=CN=C46
Details	AUC of viability dose-response curve	cell viability [%]
[1], 0.000781 µM	–	107
[1], 0.00234 µM	–	114
[1], 0.00702 µM	–	125
[1], 0.0211 µM	–	129
[1], 0.0632 µM	–	139
[1], 0.19 µM	–	124
[1], 0.569 µM	–	92.5
[1], 1.71 µM	–	54.7
[1], 5.12 µM	–	16.4
[1], 15.4 µM	–	12.9
[1], 46.1 µM	–	13.2
[3], HPLM + 10% dialyzed FBS	358	–
[3], RPMI 5 mM glucose + 10% FBS	333	–
[3], RPMI 5 mM glucose + 10% dialyzed FBS	371	–
[4], HPLM + 10% dialyzed FBS	402	–
[4], RPMI 5 mM glucose + 10% FBS	395	–
[4], RPMI 5 mM glucose + 10% dialyzed FBS	409	–
[5], HPLM + 10% dialyzed FBS	465	–
[5], RPMI 5 mM glucose + 10% FBS	462	–
[5], RPMI 5 mM glucose + 10% dialyzed FBS	457	–

cell viability [%], [2]
Details	HPLM + 10% dialyzed FBS	RPMI 5 mM glucose + 10% FBS	RPMI 5 mM glucose + 10% dialyzed FBS
0.000781 µM	100	106	118
0.00234 µM	106	115	117
0.00702 µM	102	123	138
0.0211 µM	108	118	125
0.0632 µM	119	126	122
0.19 µM	121	114	123
0.569 µM	112	105	131
1.71 µM	110	112	129
5.12 µM	105	115	110
15.4 µM	96.8	90.3	105
46.1 µM	89.4	91.1	95.7
